In paper doi:10.1101/2023.05.10.540130:
No constants are given. Whether binding was seen depends on the method and setting. Binding seen in cells or lysates may run through a third protein. Some results given as binding are weak or reduced against the parent protein; the word gives no strength.

By UniProt entry, the sequences of proteins in these tests, tags left out.
UniProt Q9BQ15: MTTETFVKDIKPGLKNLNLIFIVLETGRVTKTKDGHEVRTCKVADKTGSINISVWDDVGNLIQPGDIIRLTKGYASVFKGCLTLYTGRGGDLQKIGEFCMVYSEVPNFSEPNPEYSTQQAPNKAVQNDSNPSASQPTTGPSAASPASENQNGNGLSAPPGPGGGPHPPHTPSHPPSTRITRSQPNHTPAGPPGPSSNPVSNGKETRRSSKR
UniProt P00519: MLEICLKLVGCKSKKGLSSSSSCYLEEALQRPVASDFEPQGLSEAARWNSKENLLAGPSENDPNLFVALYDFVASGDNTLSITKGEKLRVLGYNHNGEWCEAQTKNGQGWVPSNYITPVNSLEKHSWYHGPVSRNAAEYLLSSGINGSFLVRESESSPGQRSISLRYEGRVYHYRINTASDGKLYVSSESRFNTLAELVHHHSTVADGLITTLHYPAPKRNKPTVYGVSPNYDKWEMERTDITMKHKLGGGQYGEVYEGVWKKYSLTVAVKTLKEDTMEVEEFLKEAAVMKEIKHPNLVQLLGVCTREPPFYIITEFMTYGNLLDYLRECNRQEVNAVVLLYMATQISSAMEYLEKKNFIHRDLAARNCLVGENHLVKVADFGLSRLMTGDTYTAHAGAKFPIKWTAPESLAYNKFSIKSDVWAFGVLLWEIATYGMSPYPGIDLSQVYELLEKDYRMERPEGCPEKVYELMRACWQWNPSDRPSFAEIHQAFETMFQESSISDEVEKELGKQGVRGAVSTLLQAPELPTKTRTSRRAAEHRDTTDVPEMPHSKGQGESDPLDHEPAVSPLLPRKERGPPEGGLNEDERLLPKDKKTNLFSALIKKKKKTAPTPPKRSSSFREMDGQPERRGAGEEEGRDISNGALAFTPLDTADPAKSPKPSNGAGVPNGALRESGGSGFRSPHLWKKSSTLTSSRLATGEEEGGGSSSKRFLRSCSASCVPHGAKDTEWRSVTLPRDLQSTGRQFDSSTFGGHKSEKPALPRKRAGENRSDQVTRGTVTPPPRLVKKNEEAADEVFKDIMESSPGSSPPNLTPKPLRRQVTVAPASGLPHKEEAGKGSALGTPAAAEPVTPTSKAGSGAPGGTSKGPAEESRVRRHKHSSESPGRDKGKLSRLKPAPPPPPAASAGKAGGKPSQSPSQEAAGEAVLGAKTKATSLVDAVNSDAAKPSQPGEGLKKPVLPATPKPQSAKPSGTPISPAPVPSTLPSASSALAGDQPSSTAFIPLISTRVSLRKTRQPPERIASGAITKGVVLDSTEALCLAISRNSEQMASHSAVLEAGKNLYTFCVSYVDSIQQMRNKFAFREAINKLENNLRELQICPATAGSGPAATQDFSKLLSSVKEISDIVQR

Target: hSSB1, endogenous (human (endogenous in HeLa)) (UniProt Q9BQ15)
Assay: proximity ligation

Substance	binding
Abelson tyrosine kinase c-Abl, endogenous (from UniProt P00519 1-1130) (enzyme)	binds
phosphorylated c-Abl (p-c-Abl), endogenous (from UniProt P00519 1-1130) (enzyme)	binds
